This is an account of results in article PMC12098900.

Protein sequences, listed by entry. Tags and fused reporters are not part of them.
UniProt Q9WVH4: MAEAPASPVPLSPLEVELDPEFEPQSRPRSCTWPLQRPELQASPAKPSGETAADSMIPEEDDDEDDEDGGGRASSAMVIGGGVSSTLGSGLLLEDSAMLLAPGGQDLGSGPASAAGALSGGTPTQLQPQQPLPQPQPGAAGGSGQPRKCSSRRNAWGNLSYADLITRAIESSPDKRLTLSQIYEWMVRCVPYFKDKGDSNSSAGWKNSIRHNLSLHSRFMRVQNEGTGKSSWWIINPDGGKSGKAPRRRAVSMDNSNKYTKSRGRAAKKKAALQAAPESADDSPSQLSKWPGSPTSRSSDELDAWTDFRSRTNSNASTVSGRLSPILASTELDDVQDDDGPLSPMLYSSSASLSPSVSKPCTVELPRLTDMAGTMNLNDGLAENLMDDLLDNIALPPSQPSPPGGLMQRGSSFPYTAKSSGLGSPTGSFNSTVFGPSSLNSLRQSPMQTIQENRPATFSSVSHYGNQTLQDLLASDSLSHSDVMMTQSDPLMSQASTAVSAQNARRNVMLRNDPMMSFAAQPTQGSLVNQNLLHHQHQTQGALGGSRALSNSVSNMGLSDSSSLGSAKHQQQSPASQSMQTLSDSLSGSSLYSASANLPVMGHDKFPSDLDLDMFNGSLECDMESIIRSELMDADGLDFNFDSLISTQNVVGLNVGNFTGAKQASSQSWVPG
UniProt P70288: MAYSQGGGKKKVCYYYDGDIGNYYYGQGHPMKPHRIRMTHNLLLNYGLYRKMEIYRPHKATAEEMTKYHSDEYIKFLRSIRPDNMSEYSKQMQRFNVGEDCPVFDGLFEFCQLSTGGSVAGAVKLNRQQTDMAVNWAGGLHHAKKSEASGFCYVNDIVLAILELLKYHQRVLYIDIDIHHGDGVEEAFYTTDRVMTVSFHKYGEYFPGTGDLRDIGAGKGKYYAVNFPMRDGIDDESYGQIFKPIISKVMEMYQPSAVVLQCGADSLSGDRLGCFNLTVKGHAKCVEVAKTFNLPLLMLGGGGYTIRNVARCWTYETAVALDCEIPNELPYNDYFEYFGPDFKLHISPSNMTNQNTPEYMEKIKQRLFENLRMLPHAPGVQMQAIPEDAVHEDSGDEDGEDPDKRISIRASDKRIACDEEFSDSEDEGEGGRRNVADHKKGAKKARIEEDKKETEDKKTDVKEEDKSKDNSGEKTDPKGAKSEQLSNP

These are yes or no findings as the source states them, for the method shown. In cells and extracts the contact can be indirect. Some binding calls cover weakened binding; strength is not graded here.

The test deals with forkhead box O3 (FOXO3) (not stated (endogenous in macrophages; RAW264.7 mouse or THP-1 human cells cultured)) (UniProt Q9WVH4). In words: co-IP; lysates of ox-LDL (60 ug/mL)-loaded macrophages, untreated or infected with Pg or KDP136 (MOI = 100) for 24 h; specific primary antibodies 4 °C 12 h, protein A agarose beads 4 °C 4 h, four washes, western blot. (In general: A western blot detects proteins with antibodies after separation by electrophoresis.)

“histone deacetylase 2 (HDAC2) (from UniProt P70288 1-488)”: the binding result is given as “binds”.
